{"sequences": {"note": "By UniProt entry, the sequences of proteins in these tests, tags left out. Where a name states a change or a piece, a line headed by the entry shows the natural chain unless it says otherwise.", "UniProt P26497": "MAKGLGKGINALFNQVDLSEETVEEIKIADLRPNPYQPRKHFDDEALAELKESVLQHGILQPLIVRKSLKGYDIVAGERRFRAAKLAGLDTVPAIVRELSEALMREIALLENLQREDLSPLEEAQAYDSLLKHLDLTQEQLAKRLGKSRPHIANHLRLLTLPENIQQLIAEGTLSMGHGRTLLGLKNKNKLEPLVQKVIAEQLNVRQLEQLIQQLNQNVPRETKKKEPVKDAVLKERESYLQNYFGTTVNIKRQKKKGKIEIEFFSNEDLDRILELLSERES"}, "source": "paper PMC11317135", "target": "BsParB (Spo0J) (Bacillus subtilis) (UniProt P26497)", "assay": "in vitro co-condensation (phase separation) imaging", "details": "Assay buffer; ParB storage buffer 50 mM Tris-HCl pH 7.5, 300 mM NaCl, 10% glycerol; 2 mM CTP where stated; recombinant protein; protein details: N-terminal …; label: 5'-Cy5 on upper strand", "note": "For at least one entry, the source does not settle the construct or the ends of the probe. At least one verdict was read from the data and is not stated in words by the source."}
{"sequence": "TCGATGCATACGTGACTGTTTCACGTGAAACATCGATGCATACGTGACATTC (double strand) [Cy5-parS]", "values": [{"measurement": "binding result", "result": "binds"}]}
